Assay results as given in the supplement of paper PMC10849652.
The other results are listed elsewhere or left out.

By UniProt entry, the sequences of proteins in these tests, tags left out. Where a name states a change or a piece, a line headed by the entry shows the natural chain unless it says otherwise.
UniProt Q99470: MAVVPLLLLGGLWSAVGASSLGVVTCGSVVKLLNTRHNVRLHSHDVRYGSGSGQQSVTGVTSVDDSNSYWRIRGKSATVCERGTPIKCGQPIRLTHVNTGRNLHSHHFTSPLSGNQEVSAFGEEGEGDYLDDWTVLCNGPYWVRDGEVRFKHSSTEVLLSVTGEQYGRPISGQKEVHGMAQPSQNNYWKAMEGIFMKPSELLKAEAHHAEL
UniProt Q5PRF9: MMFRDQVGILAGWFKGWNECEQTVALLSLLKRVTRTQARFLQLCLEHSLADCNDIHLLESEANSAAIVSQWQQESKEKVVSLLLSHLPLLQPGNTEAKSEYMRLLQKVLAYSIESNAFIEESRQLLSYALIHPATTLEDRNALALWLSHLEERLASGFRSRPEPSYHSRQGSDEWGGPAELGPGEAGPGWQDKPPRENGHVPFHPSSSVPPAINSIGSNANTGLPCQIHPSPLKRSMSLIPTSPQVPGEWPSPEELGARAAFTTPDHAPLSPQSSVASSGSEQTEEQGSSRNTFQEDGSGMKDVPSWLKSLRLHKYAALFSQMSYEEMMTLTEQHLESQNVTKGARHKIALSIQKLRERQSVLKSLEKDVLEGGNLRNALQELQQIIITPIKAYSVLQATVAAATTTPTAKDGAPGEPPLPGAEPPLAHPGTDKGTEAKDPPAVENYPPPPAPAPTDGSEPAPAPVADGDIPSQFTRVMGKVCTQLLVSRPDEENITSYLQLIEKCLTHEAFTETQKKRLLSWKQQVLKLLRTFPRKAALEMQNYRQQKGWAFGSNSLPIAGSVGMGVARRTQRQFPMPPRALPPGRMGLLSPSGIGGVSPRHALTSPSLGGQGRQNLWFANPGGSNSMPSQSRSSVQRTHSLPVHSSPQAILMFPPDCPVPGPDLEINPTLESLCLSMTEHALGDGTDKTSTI
UniProt Q9NSI8: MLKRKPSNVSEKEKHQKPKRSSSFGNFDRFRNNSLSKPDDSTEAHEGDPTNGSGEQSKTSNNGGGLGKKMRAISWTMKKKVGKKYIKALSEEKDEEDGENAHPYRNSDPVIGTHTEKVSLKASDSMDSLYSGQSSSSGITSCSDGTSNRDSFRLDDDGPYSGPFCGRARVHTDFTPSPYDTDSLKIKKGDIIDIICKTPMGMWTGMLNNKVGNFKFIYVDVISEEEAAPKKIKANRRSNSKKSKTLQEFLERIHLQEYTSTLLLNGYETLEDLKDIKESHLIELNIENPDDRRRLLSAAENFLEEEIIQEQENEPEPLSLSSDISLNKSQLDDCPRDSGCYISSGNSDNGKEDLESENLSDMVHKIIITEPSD
UniProt P67812: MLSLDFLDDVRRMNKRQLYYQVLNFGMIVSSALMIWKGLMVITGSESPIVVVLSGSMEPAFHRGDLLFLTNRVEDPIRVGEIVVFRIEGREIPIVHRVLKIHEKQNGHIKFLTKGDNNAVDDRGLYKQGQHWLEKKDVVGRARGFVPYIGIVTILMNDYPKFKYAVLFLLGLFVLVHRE
UniProt Q9NPB0: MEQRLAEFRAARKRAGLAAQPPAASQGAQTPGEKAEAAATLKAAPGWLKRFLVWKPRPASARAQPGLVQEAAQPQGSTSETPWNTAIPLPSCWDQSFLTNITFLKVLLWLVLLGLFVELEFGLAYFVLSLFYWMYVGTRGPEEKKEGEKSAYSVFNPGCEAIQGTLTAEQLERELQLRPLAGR
UniProt Q9UPN6: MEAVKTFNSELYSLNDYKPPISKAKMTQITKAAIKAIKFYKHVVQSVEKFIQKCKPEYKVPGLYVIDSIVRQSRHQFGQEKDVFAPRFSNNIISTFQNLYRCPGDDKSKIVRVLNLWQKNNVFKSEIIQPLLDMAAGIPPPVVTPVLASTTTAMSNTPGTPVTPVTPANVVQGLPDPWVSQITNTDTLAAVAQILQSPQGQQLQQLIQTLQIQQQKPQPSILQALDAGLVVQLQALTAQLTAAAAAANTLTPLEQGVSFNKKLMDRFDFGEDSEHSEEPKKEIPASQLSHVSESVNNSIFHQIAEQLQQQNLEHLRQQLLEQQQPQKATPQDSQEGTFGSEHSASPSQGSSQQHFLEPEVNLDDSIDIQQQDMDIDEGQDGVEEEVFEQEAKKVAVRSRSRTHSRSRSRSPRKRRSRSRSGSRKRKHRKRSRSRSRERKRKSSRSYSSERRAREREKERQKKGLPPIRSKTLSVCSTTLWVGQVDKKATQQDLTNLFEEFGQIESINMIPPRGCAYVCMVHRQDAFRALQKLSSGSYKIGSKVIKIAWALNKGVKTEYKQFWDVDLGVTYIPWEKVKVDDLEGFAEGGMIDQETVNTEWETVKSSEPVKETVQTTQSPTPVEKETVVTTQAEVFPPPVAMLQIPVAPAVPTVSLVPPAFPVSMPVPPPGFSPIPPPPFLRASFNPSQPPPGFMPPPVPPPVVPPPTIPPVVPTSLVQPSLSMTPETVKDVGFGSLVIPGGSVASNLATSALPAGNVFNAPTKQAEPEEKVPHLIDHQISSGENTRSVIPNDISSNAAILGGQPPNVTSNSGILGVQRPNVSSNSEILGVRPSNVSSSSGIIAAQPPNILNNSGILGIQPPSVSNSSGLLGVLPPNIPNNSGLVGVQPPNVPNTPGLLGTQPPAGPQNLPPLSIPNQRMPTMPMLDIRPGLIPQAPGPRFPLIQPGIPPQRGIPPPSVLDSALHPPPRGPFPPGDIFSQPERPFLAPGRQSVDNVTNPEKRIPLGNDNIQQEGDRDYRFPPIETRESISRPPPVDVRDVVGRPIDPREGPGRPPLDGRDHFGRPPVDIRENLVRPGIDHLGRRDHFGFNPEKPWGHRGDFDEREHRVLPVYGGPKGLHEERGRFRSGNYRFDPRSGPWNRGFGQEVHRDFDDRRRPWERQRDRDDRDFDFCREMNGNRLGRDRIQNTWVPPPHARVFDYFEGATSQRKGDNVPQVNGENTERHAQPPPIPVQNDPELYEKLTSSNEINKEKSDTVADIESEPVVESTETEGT
UniProt Q96FQ6: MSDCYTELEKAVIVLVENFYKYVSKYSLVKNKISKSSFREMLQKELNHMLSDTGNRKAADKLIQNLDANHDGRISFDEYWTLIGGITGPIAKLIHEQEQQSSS
UniProt Q13296: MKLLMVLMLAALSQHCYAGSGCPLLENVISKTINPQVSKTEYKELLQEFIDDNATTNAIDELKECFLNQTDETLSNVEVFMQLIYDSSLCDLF
UniProt Q01196, whole entry, looked up: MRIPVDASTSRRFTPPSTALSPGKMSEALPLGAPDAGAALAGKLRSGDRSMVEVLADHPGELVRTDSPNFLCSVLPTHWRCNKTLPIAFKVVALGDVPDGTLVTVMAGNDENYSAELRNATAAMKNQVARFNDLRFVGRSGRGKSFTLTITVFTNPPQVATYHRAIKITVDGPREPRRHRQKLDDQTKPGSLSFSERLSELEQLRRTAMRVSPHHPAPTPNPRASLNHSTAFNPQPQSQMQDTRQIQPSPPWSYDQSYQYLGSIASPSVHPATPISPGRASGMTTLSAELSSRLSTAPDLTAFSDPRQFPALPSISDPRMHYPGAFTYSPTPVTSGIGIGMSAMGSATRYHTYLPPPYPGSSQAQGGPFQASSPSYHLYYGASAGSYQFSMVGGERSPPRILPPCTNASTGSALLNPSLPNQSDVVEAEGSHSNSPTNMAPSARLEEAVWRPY
UniProt Q7L099: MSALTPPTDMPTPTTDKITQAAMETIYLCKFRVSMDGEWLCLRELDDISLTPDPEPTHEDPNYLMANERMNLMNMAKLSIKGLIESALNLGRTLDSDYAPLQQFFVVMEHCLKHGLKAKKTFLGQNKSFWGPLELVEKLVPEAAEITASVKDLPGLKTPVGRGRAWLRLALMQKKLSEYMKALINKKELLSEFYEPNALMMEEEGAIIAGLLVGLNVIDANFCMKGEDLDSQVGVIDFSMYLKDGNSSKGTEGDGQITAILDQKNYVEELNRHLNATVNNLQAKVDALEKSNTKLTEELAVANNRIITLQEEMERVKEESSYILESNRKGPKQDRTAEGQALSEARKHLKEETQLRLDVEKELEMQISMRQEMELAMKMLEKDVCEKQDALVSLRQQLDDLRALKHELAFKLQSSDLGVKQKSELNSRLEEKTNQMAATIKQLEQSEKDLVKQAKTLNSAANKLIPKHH
UniProt Q14160: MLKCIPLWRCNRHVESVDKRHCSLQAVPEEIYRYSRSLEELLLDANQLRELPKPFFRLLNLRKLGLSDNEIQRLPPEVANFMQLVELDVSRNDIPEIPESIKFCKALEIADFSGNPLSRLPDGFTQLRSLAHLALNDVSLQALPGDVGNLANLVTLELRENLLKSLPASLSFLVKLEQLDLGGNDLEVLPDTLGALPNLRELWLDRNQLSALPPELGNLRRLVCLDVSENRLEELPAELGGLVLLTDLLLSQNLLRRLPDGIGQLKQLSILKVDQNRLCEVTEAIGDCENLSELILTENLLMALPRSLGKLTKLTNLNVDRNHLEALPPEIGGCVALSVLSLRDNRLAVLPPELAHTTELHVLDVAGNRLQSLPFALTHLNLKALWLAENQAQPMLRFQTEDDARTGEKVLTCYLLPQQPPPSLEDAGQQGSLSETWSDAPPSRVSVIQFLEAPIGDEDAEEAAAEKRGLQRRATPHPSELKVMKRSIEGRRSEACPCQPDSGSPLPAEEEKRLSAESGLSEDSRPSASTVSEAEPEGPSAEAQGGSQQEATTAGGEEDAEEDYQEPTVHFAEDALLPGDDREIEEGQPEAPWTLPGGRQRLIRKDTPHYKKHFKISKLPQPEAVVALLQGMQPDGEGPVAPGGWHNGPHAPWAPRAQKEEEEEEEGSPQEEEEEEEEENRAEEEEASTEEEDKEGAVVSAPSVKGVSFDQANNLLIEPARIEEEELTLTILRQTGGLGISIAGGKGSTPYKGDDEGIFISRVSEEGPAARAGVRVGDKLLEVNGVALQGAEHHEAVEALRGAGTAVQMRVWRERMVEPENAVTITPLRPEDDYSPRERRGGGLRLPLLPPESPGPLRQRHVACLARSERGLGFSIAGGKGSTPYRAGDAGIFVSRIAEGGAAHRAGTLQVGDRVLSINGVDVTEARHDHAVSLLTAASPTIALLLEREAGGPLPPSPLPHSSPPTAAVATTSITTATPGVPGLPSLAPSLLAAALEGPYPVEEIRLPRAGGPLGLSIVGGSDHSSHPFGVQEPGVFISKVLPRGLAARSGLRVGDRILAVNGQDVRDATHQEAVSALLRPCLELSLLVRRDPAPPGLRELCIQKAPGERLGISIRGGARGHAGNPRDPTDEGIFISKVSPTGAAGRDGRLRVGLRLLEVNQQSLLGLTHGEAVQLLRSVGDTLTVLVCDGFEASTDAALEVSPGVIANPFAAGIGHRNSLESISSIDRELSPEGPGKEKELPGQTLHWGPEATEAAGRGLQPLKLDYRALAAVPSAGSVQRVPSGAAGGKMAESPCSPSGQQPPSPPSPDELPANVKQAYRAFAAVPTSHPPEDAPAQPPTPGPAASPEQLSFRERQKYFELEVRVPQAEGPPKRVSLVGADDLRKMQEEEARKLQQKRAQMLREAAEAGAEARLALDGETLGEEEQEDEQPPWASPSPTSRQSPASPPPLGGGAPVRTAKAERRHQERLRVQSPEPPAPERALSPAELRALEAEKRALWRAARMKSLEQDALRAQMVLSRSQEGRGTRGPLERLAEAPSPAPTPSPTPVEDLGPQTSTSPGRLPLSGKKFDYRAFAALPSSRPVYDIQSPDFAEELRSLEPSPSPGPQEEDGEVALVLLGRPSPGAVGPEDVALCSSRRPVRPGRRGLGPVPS
UniProt A6ZKI3: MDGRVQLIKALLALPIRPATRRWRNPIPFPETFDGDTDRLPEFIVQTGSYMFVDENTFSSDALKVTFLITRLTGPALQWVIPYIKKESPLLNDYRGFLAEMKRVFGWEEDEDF
UniProt Q14684: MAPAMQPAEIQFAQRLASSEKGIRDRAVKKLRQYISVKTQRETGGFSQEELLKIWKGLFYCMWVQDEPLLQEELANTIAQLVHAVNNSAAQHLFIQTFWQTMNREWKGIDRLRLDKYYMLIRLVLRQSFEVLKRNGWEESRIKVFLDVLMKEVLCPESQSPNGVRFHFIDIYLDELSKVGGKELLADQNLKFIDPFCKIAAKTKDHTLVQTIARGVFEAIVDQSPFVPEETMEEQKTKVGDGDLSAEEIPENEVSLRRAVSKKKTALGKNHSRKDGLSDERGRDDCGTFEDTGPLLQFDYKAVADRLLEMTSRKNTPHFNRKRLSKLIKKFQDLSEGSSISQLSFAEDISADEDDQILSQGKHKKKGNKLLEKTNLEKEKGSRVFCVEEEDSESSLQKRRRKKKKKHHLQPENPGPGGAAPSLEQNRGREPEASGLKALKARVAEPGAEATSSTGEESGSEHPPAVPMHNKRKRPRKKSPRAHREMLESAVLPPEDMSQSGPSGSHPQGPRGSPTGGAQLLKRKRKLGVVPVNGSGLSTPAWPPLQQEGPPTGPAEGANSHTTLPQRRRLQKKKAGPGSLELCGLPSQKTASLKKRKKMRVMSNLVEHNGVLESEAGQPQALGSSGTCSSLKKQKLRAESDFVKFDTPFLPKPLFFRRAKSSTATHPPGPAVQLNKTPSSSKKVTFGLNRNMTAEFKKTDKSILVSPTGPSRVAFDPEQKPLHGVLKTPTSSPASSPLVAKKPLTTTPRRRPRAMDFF

Compound: C1=CC=C(C=C1)[C@H](COC2=CC3=C(C=C2)NC(=O)N3)NC(=O)C4=CC=CN(C4=O)CC5=CC(=C(C=C5)F)F
Test: log2 fold change, soluble protein after heating vs DMSO (PISA); higher = thermal stabilisation; K562 cells, 10 uM, 30 min; active = over 0.2 and 3.5 SD of the protein, either way, in both replicates (recomputed)
Summary of the method: (§1)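 Values are thermal stability changes relative to control samples and are taken from duplicates. They are stated as log2 fold changes. Before quantification by TMTpro 16plex LC-MS/MS with equalised channel sums, K562 cells at 2×10^6 cells/mL were treated with 10 μM compound for 30 min, heated in aliquots for 3 min across 48°C-58°C, pooled, extracted in PBS with 0.5% NP-40 at 4°C, and centrifuged at 21,000xg for 90 min to give the soluble supernatant.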

Target	log2 fold change
RSL24D1 (UniProt Q9UHA3)	inactive: 0.117
SDF2 (UniProt Q99470)	inactive: 0.272
SAMD4B (UniProt Q5PRF9)	inactive: 0.107
SDCBP isoform 2 (UniProt O00560)	inactive: -0.08
SDHB, A0A087WXX8	inactive: -0.05
SCAMP3 isoform 2 (UniProt O14828)	inactive: 0.09
S100A14 (UniProt Q9HCY8)	inactive: -0.042
S100A6 (UniProt P06703)	inactive: -0.019
SAMSN1 isoform 3 (UniProt Q9NSI8)	inactive: -0.028
S100A10 (UniProt P60903)	inactive: 0.651
SEC11A isoform 3 (UniProt P67812)	inactive: -0.044
SAYSD1 (UniProt Q9NPB0)	inactive: -0.043
SCAF8 isoform 2 (UniProt Q9UPN6)	inactive: -0.072
SEC22A (UniProt Q96IW7)	inactive: -0.03
SDHAF4 (UniProt Q5VUM1)	inactive: 0.053
S100A16 (UniProt Q96FQ6)	inactive: 0.193
SCGB2A2 (UniProt Q13296)	inactive: -0.23
RUNX1 isoform 8 (UniProt Q01196)	inactive: -0.042
SDHB, A0A087WWT1	inactive: 0.018
SAE1 (UniProt M0R286)	inactive: -0.08
SDAD1 (UniProt Q9NVU7)	inactive: -0.052
SCNM1 (UniProt Q9BWG6)	inactive: 0.055

Compound: CC1=C(SC2=C1C(=N[C@H](C3=NN=C(N32)C)CC(=O)N)C4=CC=C(C=C4)Cl)C
Test: as above
Summary of the method: as §1

Target	log2 fold change
SAMD4B (UniProt Q5PRF9)	inactive: -0.027
SEC14L1 isoform 2 (UniProt Q92503)	inactive: 0.101
SDHB, A0A087WXX8	inactive: -0.003
SDC3 (UniProt O75056)	inactive: -0.012
RTL10 (UniProt Q7L3V2)	inactive: 0.017
S100A6 (UniProt P06703)	inactive: 0.032
SAMSN1 isoform 3 (UniProt Q9NSI8)	inactive: 0.014
RTN4 isoform 5 (UniProt Q9NQC3)	inactive: -0.083
SAP130 isoform 3 (UniProt Q9H0E3)	inactive: -0.159
S100A10 (UniProt P60903)	inactive: 0.061
SEC11A isoform 3 (UniProt P67812)	inactive: 0.017
SAYSD1 (UniProt Q9NPB0)	inactive: 0.116
SCAF8 isoform 2 (UniProt Q9UPN6)	inactive: 0.099
RUFY3 isoform 3 (UniProt Q7L099)	inactive: -0.004
SCAI isoform 2 (UniProt Q8N9R8)	inactive: 0.013
SEC22A (UniProt Q96IW7)	inactive: 0.071
SDHAF4 (UniProt Q5VUM1)	inactive: 0.16
SAP30 (UniProt O75446)	inactive: -0.006
SDHB, A0A087WWT1	inactive: -0.025
SCRIB isoform 3 (UniProt Q14160)	inactive: -0.061
SAE1 (UniProt M0R286)	inactive: 0.313
SDAD1 (UniProt Q9NVU7)	inactive: -0.045

Compound: CC1=C2C(=CC=C1)N=C(N(C2=O)C3=CC=CC=C3C)CN4C=NC5=C(N=CN=C54)N
Test: as above
Summary of the method: as §1

Target	log2 fold change
RSL24D1 (UniProt Q9UHA3)	inactive: -0.317
SEC14L1 isoform 2 (UniProt Q92503)	inactive: -0.538
SDHB, A0A087WXX8	inactive: 0.133
SDC3 (UniProt O75056)	inactive: 0.071
SCAMP3 isoform 2 (UniProt O14828)	inactive: 0.323
S100A14 (UniProt Q9HCY8)	inactive: -0.148
RTL10 (UniProt Q7L3V2)	inactive: -0.061
SAMSN1 isoform 3 (UniProt Q9NSI8)	inactive: 0.025
RTN4 isoform 5 (UniProt Q9NQC3)	inactive: 0.021
SAP130 isoform 3 (UniProt Q9H0E3)	inactive: -0.067
SEC11A isoform 3 (UniProt P67812)	inactive: 0.007
SCAF8 isoform 2 (UniProt Q9UPN6)	inactive: 0.254
RUFY3 isoform 3 (UniProt Q7L099)	inactive: 0.061
RTL8C (UniProt A6ZKI3)	inactive: 0.111
SCAI isoform 2 (UniProt Q8N9R8)	inactive: -0.03
RRP1 (UniProt P56182)	inactive: 0.107
SDCCAG8 (UniProt Q86SQ7)	inactive: -0.043
S100A16 (UniProt Q96FQ6)	inactive: -0.242
SCGB2A2 (UniProt Q13296)	inactive: -0.247
RUNX1 isoform 8 (UniProt Q01196)	inactive: 0.025
SAP30 (UniProt O75446)	inactive: -0.002
RRP1B (UniProt Q14684)	inactive: -0.138
SDHB, A0A087WWT1	inactive: -0.02
SAE1 (UniProt M0R286)	inactive: 0.396
RUBCN (UniProt Q92622)	inactive: 0.106
RWDD2B (UniProt P57060)	inactive: 0.165
